## Cleaved PARP after 72 h of treatment

Data from the primary screen of doi:10.1371/journal.pone.0140310, rounded.

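The test systems are human melanoma cell lines, treated with two drugs together for 72 h and then stained and imaged. Values are the share of nuclei positive for cleaved PARP as a percentage of the same share in the DMSO control: 100 is the control level, higher means more apoptosis. Concentrations were fixed for each drug; these are the higher of two levels. The file gives one value for each pair and line, without errors, so small differences may be noise. The marker varies much from line to line, for technical or biological reasons.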
An unselected part of the screen is shown.
An entry leaves out what has no value listed here.
A dash means that no value is listed here.

All values are for the listed drug together with tamatinib (2 µM): COc1cc(Nc2ncc(F)c(Nc3ccc4c(n3)NC(=O)C(C)(C)O4)n2)cc(OC)c1OC

Partner,COLO 800,COLO 829,G-361,SK-MEL-5,LB2518-MEL,WM1745,IPC-298,WM3526,WM3619,A375,SK-MEL-2,501mel,SK-MEL-30,RPMI-7951,MEL-HO
NCC(=O)Nc1ccc(-n2nc(C(F)(F)F)cc2-c2ccc3c(ccc4ccccc43)c2)cc1 at 5 µM,781,171,293,421,344,191,55.6,108,123,-,259,-,269,185,363
Cc1cc(N2CCOCC2)cc2[nH]c(-c3c(NC[C@@H](O)c4cccc(Cl)c4)cc[nH]c3=O)nc12 at 1 µM,339,122,254,153,212,342,20.3,188,140,-,103,-,59.5,141,100
Cn1c(Nc2ccc(C(F)(F)F)cc2)nc2cc(Oc3ccnc(-c4ncc(C(F)(F)F)[nH]4)c3)ccc21 at 0.4 µM,153,116,287,46.6,89.2,314,71.7,193,128,-,238,-,84.9,116,79.3
OCCn1cc(-c2cnc3nnn(Cc4ccc5ncccc5c4)c3n2)cn1 at 5 µM,35.7,256,110,502,116,189,89.1,314,161,-,139,-,24.1,529,87.6
C[C@@H]1CCN(C(=O)CC#N)C[C@@H]1N(C)c1ncnc2[nH]ccc12 at 5 µM,145,179,109,56.7,116,158,163,141,156,-,72.3,-,84.7,145,93.5
C=CCNC1=C2C[C@@H](C)C[C@H](OC)[C@H](O)[C@@H](C)/C=C(\C)[C@H](OC(N)=O)[C@@H](OC)/C=C\C=C(/C)C(=O)NC(=CC1=O)C2=O at 0.01 µM,337,268,233,170,61.4,333,169,780,162,-,75.1,-,71.0,831,60.8
CCCCCCCCCCCC1=C(O)C(=O)C=C(O)C1=O at 6 µM,332,91.7,29.6,54.2,116,260,56.2,87.1,170,47.2,192,137,45.2,345,94.0
CCCS(=O)(=O)Nc1ccc(F)c(C(=O)c2c[nH]c3ncc(Cl)cc23)c1F at 0.4 µM,58.0,169,139,83.3,291,229,132,373,138,-,54.8,-,28.2,595,95.6
c1cc(-c2cnn3cc(-c4ccc(OCCN5CCCCC5)cc4)cnc23)ccn1 at 2 µM,275,73.0,244,301,219,384,122,177,221,90.4,135,87.3,149,273,423
CNC(=O)c1cc(Oc2ccc(NC(=O)Nc3ccc(Cl)c(C(F)(F)F)c3)cc2)ccn1 at 2 µM,251,95.1,139,106,131,161,74.2,244,163,-,105,-,75.0,180,145
CC1(C)NC(=O)N(c2ccc([N+](=O)[O-])c(C(F)(F)F)c2)C1=O at 5 µM,316,199,131,359,82.9,244,87.0,182,160,-,214,-,143,172,96.5
Oc1nc(-c2ccc(C(F)(F)F)cc2)nc2c1CSCC2 at 10 µM,181,144,102,102,83.1,253,100,110,144,61.6,84.8,120,112,801,124
O=C(/C=C/c1cccnc1)NCCCCC1CCN(C(=O)c2ccccc2)CC1 at 0.05 µM,92.9,542,6510,39.8,483,317,1240,152,147,-,962,-,44.4,165,200
CCN(CC)CCCCNc1ncc2cc(-c3cc(OC)cc(OC)c3)c(NC(=O)NC(C)(C)C)nc2n1 at 0.5 µM,108,46.1,82.2,294,59.7,329,47.1,104,152,42.2,147,136,125,193,27.7
O=c1cc(-c2cccc3c2Sc2ccccc2S3)oc(N2CCOCC2)c1 at 5 µM,76.8,144,38.7,196,178,284,75.4,163,353,60.1,225,86.2,109,203,61.5
CCN(CC)CCNC(=O)c1c(C)[nH]c(/C=C2\C(=O)Nc3ccc(F)cc32)c1C at 2 µM,413,102,150,96.1,30.3,207,85.3,312,175,-,48.7,-,172,357,84.9
CC(=O)c1c(C)c2cnc(Nc3ccc(N4CCNCC4)cn3)nc2n(C2CCCC2)c1=O at 0.2 µM,271,148,29.8,111,-,628,99.8,71.1,175,-,-,-,105,459,61.0
CS(=O)(=O)c1ccc(C(=O)Nc2ccc(Cl)c(-c3ccccn3)c2)c(Cl)c1 at 5 µM,146,107,180,110,140,525,255,156,172,-,317,-,124,281,193
NC(=O)c1ccc(N(C(N)=O)c2c(F)cccc2F)nc1-c1ccc(F)cc1F at 2 µM,288,125,23.0,187,136,200,58.9,211,136,-,116,-,56.3,848,175
CC(C)CCN1c2nc(Nc3cc(F)c(O)c(F)c3)ncc2N(C)C(=O)C1C (stereo unspecified) at 1 µM,506,154,359,49.9,51.7,266,51.7,187,150,57.5,70.7,141,141,143,60.8
Nc1cccc2c1CN(C1CCC(=O)NC1=O)C2=O (stereo unspecified) at 5 µM,287,248,242,48.2,219,277,425,189,121,-,183,-,12.1,255,53.9
C[C@]12O[C@H](C[C@]1(O)CO)n1c3ccccc3c3c4c(c5c6ccccc6n2c5c31)CNC4=O at 0.02 µM,135,106,147,376,113,163,38.3,94.7,114,-,63.2,-,22.1,192,84.5
Cn1nnc2c(C(N)=O)ncn2c1=O at 10 µM,224,137,158,95.8,283,171,84.6,194,95.5,-,109,-,121,219,76.7
COc1cc([C@@H]2c3cc4c(cc3[C@@H](O[C@@H]3O[C@@H]5CO[C@@H](C)O[C@H]5[C@H](O)[C@H]3O)[C@H]3COC(=O)[C@H]23)OCO4)cc(OC)c1O at 0.1 µM,84.1,109,127,57.7,116,227,35.3,249,132,-,207,-,71.3,170,85.1

Some entries from above, unchanged:

- c1cc(-c2cnn3cc(-c4ccc(OCCN5CCCCC5)cc4)cnc23)ccn1 at 2 µM | COLO 800: 275; COLO 829: 73.0; G-361: 244; SK-MEL-5: 301; LB2518-MEL: 219; WM1745: 384; IPC-298: 122; WM3526: 177; WM3619: 221; A375: 90.4; SK-MEL-2: 135; 501mel: 87.3; SK-MEL-30: 149; RPMI-7951: 273; MEL-HO: 423
- COc1cc([C@@H]2c3cc4c(cc3[C@@H](O[C@@H]3O[C@@H]5CO[C@@H](C)O[C@H]5[C@H](O)[C@H]3O)[C@H]3COC(=O)[C@H]23)OCO4)cc(OC)c1O at 0.1 µM | COLO 800: 84.1; COLO 829: 109; G-361: 127; SK-MEL-5: 57.7; LB2518-MEL: 116; WM1745: 227; IPC-298: 35.3; WM3526: 249; WM3619: 132; SK-MEL-2: 207; SK-MEL-30: 71.3; RPMI-7951: 170; MEL-HO: 85.1